Test results: patent US9247740B2, “Isoxazoline derivatives as insecticidal compounds” (Syngenta Participations AG, priority 2011, dated 2016)
Some of these results come from one statement about several compounds together. At least one structure is not confirmed: it was looked up by name or label, or the drawing left a doubt.

Assays:
Assay type in all cases: in vivo
[1] = tested on: Spodoptera littoralis (Egyptian Cotton Leafworm); test: Spodoptera littoralis leaf disc spray test; details: 200 ppm spray on cotton leaf discs; mortality, feeding behavior, growth regulation 3 days after treatment
Description: This Example illustrates the insecticidal and acaricidal properties of compounds of formula (I). Tests were performed as follows:

[2] = tested on: Heliothis virescens (Tobacco Budworm); test: Heliothis virescens egg test on artificial diet; details: 200 ppm (concentration in well 18 ppm), eggs 0-24 h old on artificial diet; egg mortality, larval mortality, growth regulation after 4 days
Excerpt: (§1) This Example illustrates the insecticidal and acaricidal properties of compounds of formula (I).

[3] = tested on: Plutella xylostella (Diamond Back Moth); test: Plutella xylostella larval test on artificial diet; details: 200 ppm (concentration in well 18 ppm), L2 larvae, larval mortality and growth regulation after 6 days
Excerpt: as §1

[4] = tested on: Diabrotica balteata (Corn Root Worm); test: Diabrotica balteata larval test on artificial diet; details: 200 ppm (concentration in well 18 ppm), L2 larvae, larval mortality and growth regulation after 5 days
Excerpt: as §1

[5] = tested on: Thrips tabaci (Onion Thrips); test: Thrips tabaci leaf disc spray test; details: 200 ppm spray on sunflower leaf discs, mixed ages; mortality after 7 days
Excerpt: as §1

[6] = tested on: Tetranychus urticae (Two-Spotted Spider Mite); test: Tetranychus urticae leaf disc spray test; details: 200 ppm spray on bean leaf discs, mixed ages; egg, larval and adult mortality 8 days later
Excerpt: as §1

Cc1cc(C2=NOC(c3cc(Cl)cc(-c4cc(C(F)(F)F)cc(C(F)(F)F)c4)c3)(C(F)(F)F)C2)ccc1C(=O)NC1C[S+]([O-])C1 (stereo not drawn) [Compound A110]
at least 80%: control of Spodoptera littoralis [1] | control of Heliothis virescens [2] | control of Plutella xylostella [3] | control of Diabrotica balteata [4] | control of Thrips tabaci [5] | control of Tetranychus urticae [6]

Cc1cc(C2=NOC(c3ccc(Br)cc3)(C(F)(F)F)C2)ccc1C(=O)NC1CS(=O)(=O)C1 (stereo not drawn) [Compound A055]
at least 80%: control of Spodoptera littoralis [1] | control of Heliothis virescens [2] | control of Plutella xylostella [3] | control of Diabrotica balteata [4] | control of Thrips tabaci [5] | control of Tetranychus urticae [6]

Cc1cc(C2=NOC(c3cc(Cl)nc(Cl)c3)(C(F)(F)F)C2)ccc1C(=O)NC1(C)CSC1 (stereo not drawn) [Compound A075]
at least 80%: control of Spodoptera littoralis [1] | control of Heliothis virescens [2] | control of Plutella xylostella [3] | control of Diabrotica balteata [4] | control of Thrips tabaci [5] | control of Tetranychus urticae [6]

Cc1cc(C2=NOC(c3cc(Cl)cc(Br)c3)(C(F)(F)F)C2)ccc1C(=O)NC1(C)CSC1 (stereo not drawn) [Compound A079]
at least 80%: control of Spodoptera littoralis [1] | control of Heliothis virescens [2] | control of Plutella xylostella [3] | control of Diabrotica balteata [4] | control of Thrips tabaci [5] | control of Tetranychus urticae [6]

Cc1cc(C2=NOC(c3cc(Cl)cc(-c4cc(Cl)cc(Cl)c4)c3)(C(F)(F)F)C2)ccc1C(=O)NC1C[S+]([O-])C1 (stereo not drawn) [Compound A112]
at least 80%: control of Spodoptera littoralis [1] | control of Heliothis virescens [2] | control of Plutella xylostella [3] | control of Diabrotica balteata [4] | control of Thrips tabaci [5] | control of Tetranychus urticae [6]

Cc1cc(C2=NOC(c3ccc(Cl)c(F)c3)(C(F)(F)F)C2)ccc1C(=O)NC1CS(=O)(=O)C1 (stereo not drawn) [Compound A020]
at least 80%: control of Spodoptera littoralis [1] | control of Heliothis virescens [2] | control of Plutella xylostella [3] | control of Diabrotica balteata [4] | control of Thrips tabaci [5] | control of Tetranychus urticae [6]

Cc1cc(C2=NOC(c3ccc(Cl)cc3)(C(F)(F)F)C2)ccc1C(=O)NC1(C)CSC1 (stereo not drawn) [Compound A048]
at least 80%: control of Spodoptera littoralis [1] | control of Heliothis virescens [2] | control of Plutella xylostella [3] | control of Diabrotica balteata [4] | control of Thrips tabaci [5] | control of Tetranychus urticae [6]

Cc1cc(C2=NOC(c3ccc(Cl)c(Cl)c3)(C(F)(F)F)C2)ccc1C(=O)NC1CS(=O)(=O)C1 (stereo not drawn) [Compound A036]
at least 80%: control of Spodoptera littoralis [1] | control of Heliothis virescens [2] | control of Plutella xylostella [3] | control of Diabrotica balteata [4] | control of Thrips tabaci [5] | control of Tetranychus urticae [6]

Cc1cc(C2=NOC(c3ccc(Cl)c(F)c3)(C(F)(F)F)C2)ccc1C(=O)NC1(C)CSC1 (stereo not drawn) [Compound A021]
at least 80%: control of Spodoptera littoralis [1] | control of Heliothis virescens [2] | control of Plutella xylostella [3] | control of Diabrotica balteata [4] | control of Thrips tabaci [5] | control of Tetranychus urticae [6]

Cc1cc(C2=NOC(c3cc(Cl)cc(-c4ccccc4Cl)c3)(C(F)(F)F)C2)ccc1C(=O)NC1C[S+]([O-])C1 (stereo not drawn) [Compound A109]
at least 80%: control of Spodoptera littoralis [1] | control of Heliothis virescens [2] | control of Plutella xylostella [3] | control of Diabrotica balteata [4] | control of Thrips tabaci [5] | control of Tetranychus urticae [6]

Cc1cc(C2=NOC(c3ccc(C(F)(F)F)cc3)(C(F)(F)F)C2)ccc1C(=O)NC1CS(=O)(=O)C1 (stereo not drawn) [Compound A032]
at least 80%: control of Spodoptera littoralis [1] | control of Heliothis virescens [2] | control of Plutella xylostella [3] | control of Diabrotica balteata [4] | control of Thrips tabaci [5] | control of Tetranychus urticae [6]

Cc1cc(C2=NOC(c3ccc(Cl)c(Cl)c3)(C(F)(F)F)C2)ccc1C(=O)NC1CSC1 (stereo not drawn) [Compound A039]
at least 80%: control of Spodoptera littoralis [1] | control of Heliothis virescens [2] | control of Plutella xylostella [3] | control of Diabrotica balteata [4] | control of Thrips tabaci [5] | control of Tetranychus urticae [6]

Cc1cc(C2=NOC(c3cc(Cl)cc(Br)c3)(C(F)(F)F)C2)ccc1C(=O)NC1CSC1 (stereo not drawn) [Compound A081]
at least 80%: control of Spodoptera littoralis [1] | control of Heliothis virescens [2] | control of Plutella xylostella [3] | control of Diabrotica balteata [4] | control of Thrips tabaci [5] | control of Tetranychus urticae [6]

COc1cc(Cl)cc(C2(C(F)(F)F)CC(c3ccc(C(=O)NC4CSC4)c(C)c3)=NO2)c1 (stereo not drawn) [Compound A040]
at least 80%: control of Spodoptera littoralis [1] | control of Heliothis virescens [2] | control of Plutella xylostella [3] | control of Diabrotica balteata [4] | control of Thrips tabaci [5] | control of Tetranychus urticae [6]

Cc1cc(C2=NOC(c3cc(Cl)cc(-c4ccc(Cl)cc4)c3)(C(F)(F)F)C2)ccc1C(=O)NC1C[S+]([O-])C1 (stereo not drawn) [Compound A107]
at least 80%: control of Spodoptera littoralis [1] | control of Heliothis virescens [2] | control of Plutella xylostella [3] | control of Diabrotica balteata [4] | control of Thrips tabaci [5] | control of Tetranychus urticae [6]

Cc1cc(C2=NOC(c3cc(Cl)cc(Cl)c3)(C(F)(F)Cl)C2)ccc1C(=O)NC1(C)CSC1 (stereo not drawn) [Compound A189]
at least 80%: control of Spodoptera littoralis [1] | control of Heliothis virescens [2] | control of Plutella xylostella [3] | control of Diabrotica balteata [4] | control of Thrips tabaci [5] | control of Tetranychus urticae [6]

Cc1cc(C2=NOC(c3cc(Cl)cc(-c4ccc(C#N)cc4)c3)(C(F)(F)F)C2)ccc1C(=O)NC1C[S+]([O-])C1 (stereo not drawn) [Compound A113]
at least 80%: control of Spodoptera littoralis [1] | control of Heliothis virescens [2] | control of Plutella xylostella [3] | control of Diabrotica balteata [4] | control of Thrips tabaci [5] | control of Tetranychus urticae [6]

Cc1cc(C2=NOC(c3cc(Cl)nc(Cl)c3)(C(F)(F)F)C2)ccc1C(=O)NC1CSC1 (stereo not drawn) [Compound A077]
at least 80%: control of Spodoptera littoralis [1] | control of Heliothis virescens [2] | control of Plutella xylostella [3] | control of Diabrotica balteata [4] | control of Thrips tabaci [5] | control of Tetranychus urticae [6]

Cc1cc(C2=NOC(c3ccc(Cl)cc3)(C(F)(F)F)C2)ccc1C(=O)NC1CSC1 (stereo not drawn) [Compound A050]
at least 80%: control of Spodoptera littoralis [1] | control of Heliothis virescens [2] | control of Plutella xylostella [3] | control of Diabrotica balteata [4] | control of Thrips tabaci [5] | control of Tetranychus urticae [6]

Cc1cc(C2=NOC(c3cc(Cl)cc(-c4c(C)nn(C)c4C)c3)(C(F)(F)F)C2)ccc1C(=O)NC1C[S+]([O-])C1 (stereo not drawn) [Compound A120]
at least 80%: control of Spodoptera littoralis [1] | control of Heliothis virescens [2] | control of Plutella xylostella [3] | control of Diabrotica balteata [4] | control of Thrips tabaci [5] | control of Tetranychus urticae [6]

Cc1cc(C2=NOC(c3cc(Cl)cc(-c4ccc(F)cc4)c3)(C(F)(F)F)C2)ccc1C(=O)NC1C[S+]([O-])C1 (stereo not drawn) [Compound A106]
at least 80%: control of Spodoptera littoralis [1] | control of Heliothis virescens [2] | control of Plutella xylostella [3] | control of Diabrotica balteata [4] | control of Thrips tabaci [5] | control of Tetranychus urticae [6]

Cc1cc(C2=NOC(c3cc(Cl)cc(-c4cccc(C(F)(F)F)c4)c3)(C(F)(F)F)C2)ccc1C(=O)NC1C[S+]([O-])C1 (stereo not drawn) [Compound A108]
at least 80%: control of Spodoptera littoralis [1] | control of Heliothis virescens [2] | control of Plutella xylostella [3] | control of Diabrotica balteata [4] | control of Thrips tabaci [5] | control of Tetranychus urticae [6]

Cc1cc(C2=NOC(c3cc(Cl)cc(Cl)c3)(C(F)F)C2)ccc1C(=O)NC1CS(=O)(=O)C1 (stereo not drawn) [Compound A193]
at least 80%: control of Spodoptera littoralis [1] | control of Heliothis virescens [2] | control of Plutella xylostella [3] | control of Diabrotica balteata [4] | control of Thrips tabaci [5] | control of Tetranychus urticae [6]
